Experimental data: PubChem BioAssay AID1508597 (Cure First, 2020)

Purpose: 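Survival screen with siRNA in ovarian cancer cells derived from patients, with or without rucaparib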 (primary screen)
System: human ovarian carcinoma lines grown from tumours: OCI-P5x (papillary serous) and OCI-C5x (clear cell)
Reagent: siRNA pool against human genes, 1.25 pmol siRNA per well
Time to read-out: 72 h or 96 h, depending on the cell culture
Conditions: rucaparib 20 µM (about IC30) or vehicle, present until read-out
Rucaparib or vehicle: Vehicle
Cell line: OCI-C5x (clear cell)
Read-out: 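ATP luminescence measured at 72 or 96 h according to the culture, then normalised and expressed as percent viability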
Direction: viability, normalised: higher = more viable cells remaining
Active means: 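Active when normalised viability falls below 80 percent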
Meaning of the calls: active = viability under 80%; inactive = viability 80% or more
This is a random part of the about 2,100 reagents, under one of the conditions tested. 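Calls flag viability under 80% in either arm, not effects specific to rucaparib; the reference for percent is not stated.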 A number with no mark means an inactive call. The record does not give: the 100% reference.

no.	Target gene	technical replicate	viability, normalised (%)
1	ZRANB3	1	64.2 (active)
2	ZRANB3	2	68.8 (active)
3	ZRANB3	3	46.6 (active)
4	GNPAT	1	58 (active)
5	GNPAT	2	71.4 (active)
6	GNPAT	3	53 (active)
7	TOP3B	1	105
8	TOP3B	2	55.7 (active)
9	TOP3B	3	57.9 (active)
10	PHF13	1	39.7 (active)
11	PHF13	2	33.1 (active)
12	PHF13	3	30.6 (active)
13	MACROH2A1	1	38.6 (active)
14	MACROH2A1	2	41.9 (active)
15	MACROH2A1	3	45.5 (active)
16	DLG1	1	82.6
17	DLG1	2	75.4 (active)
18	DLG1	3	71.4 (active)
19	DYRK2	1	62.4 (active)
20	DYRK2	2	45 (active)
21	DYRK2	3	42.6 (active)
22	MLH3	1	48 (active)
23	MLH3	2	58 (active)
24	MLH3	3	39.7 (active)

Entries listed so far whose target name starts with Z or z:
Target gene	technical replicate	viability, normalised (%)
ZRANB3	1	64.2 (active)
ZRANB3	2	68.8 (active)
ZRANB3	3	46.6 (active)
